This assay has as its system BDF1 mice, P388/VCR leukemia ip, median survival T/C. Briefly: NCI In Vivo Anticancer Drug Screen. Data for tumor model P388 Leukemia resistant to Vincristine; NSC 67574 (intraperitoneal) in B6D2F1 (BDF1) mice. Particulars: T/C endpoint: median survival time, higher T/C = longer survival. How it is done: The antitumor activity of compounds was measured in mice bearing transplantable tumors. Survival or tumor size were measured and the results are expressed as the measurement made in the treated group (T) divided by the measurement made in the vehicle treated control group (C). The tumor model used in this assay is P388 Leukemia resistant to Vincristine; NSC 67574 (intraperitoneal) in B6D2F1 (BDF1) mice

The list is a part of this screen's results and no random one: it covers a few groups of compounds. Other doses and runs of a compound may be missing. T/C: endpoint of the treated group in % of that of the vehicle group. Where survival is the endpoint, this PubChem deposit counts one and a half times the control or more as active, and values a quarter to a half above the control carry no call in these data; other NCI protocols may use other cut-offs. Schedule codes are those of the source, read here as Q, the interval in days (D) or hours (H), X, the number of doses. Some T/C values are marked as having no survivor count here; that says nothing about deaths at the dose.

For `CC(=O)OC[C@]12C[C@H](OC(=O)CC(C)C)C(C)=C[C@H]1OC1[C@H](O)[C@@H](OC(C)=O)[C@@]2(C)[C@@]12CO2`, the T/C is, setting by setting: (dose: 1.08 mg/kg/injection, schedule: Q04DX003 (ip), vehicle: saline + alcohol) 100 % of control [survivor count not shown]; (dose: 1.8 mg/kg/injection, schedule: Q04DX003 (ip), vehicle: saline + alcohol) 100 % of control [survivor count not shown]; (dose: 3.0 mg/kg/injection, schedule: Q04DX003 (ip), vehicle: saline + alcohol) 100 % of control [survivor count not shown]; (dose: 5.0 mg/kg/injection, schedule: Q04DX003 (ip), vehicle: saline + alcohol) 97 % of control [survivor count not shown]; (dose: 648.0 micrograms/kg/injection, schedule: Q04DX003 (sc), vehicle: saline + alcohol) 106 % of control [survivor count not shown]; (dose: 1080.0 micrograms/kg/injection, schedule: Q04DX003 (sc), vehicle: saline + alcohol) 104 % of control [survivor count not shown].

Turning to `CC(=O)OCC12CCC(C)=CC1OC1C(O)C(OC(C)=O)C2(C)C12CO2` (stereo not drawn), the T/C runs as follows: (dose: 1.3 mg/kg/injection, schedule: Q04DX003 (sc), vehicle: saline + alcohol) 106 % of control [survivor count not shown]; (dose: 2.16 mg/kg/injection, schedule: Q04DX003 (sc), vehicle: saline + alcohol) 108 % of control [survivor count not shown]; (dose: 4.32 mg/kg/injection, schedule: Q04DX003 (ip), vehicle: saline + alcohol) 100 % of control [survivor count not shown]; (dose: 7.2 mg/kg/injection, schedule: Q04DX003 (ip), vehicle: saline + alcohol) 100 % of control [survivor count not shown].

In the case of `C[C@@H](O)[C@H]1/C=C/C=C\C(=O)O[C@@H]2C[C@H]3O[C@@H]4[C@@H]5OC5(C)CCC4(COC(=O)[C@H]4O[C@]4(C)[C@@H](O)CO1)[C@]2(C)[C@]31CO1` (stereo partly drawn), the T/C (dose: 1.94 mg/kg/injection, schedule: Q04DX003 (sc), vehicle: other) was 105 % of control [survivor count not shown]; the T/C (dose: 3.24 mg/kg/injection, schedule: Q04DX003 (sc), vehicle: other) was 106 % of control [survivor count not shown]; the T/C (dose: 5.4 mg/kg/injection, schedule: Q04DX003 (sc), vehicle: other) is 105 % of control [survivor count not shown].

The record behind these values is PubChem BioAssay AID336 (DTP/NCI, 2004).
